Source: PMC6697681, “The predominance of nucleotidyl activation in bacterial phosphonate biosynthesis” (Nature Communications, 2019)
Results are given in words; binding and its absence hold for the method and conditions named.

Biological target: LicC from Streptococcus pneumoniae (Spn-LicC), phosphocholine cytidylyltransferase (Streptococcus pneumoniae) (UniProt Q8DPI6)
Experiment: dynamic light scattering; 20 µl of freshly purified protein (8 mg/ml) at 20 °C, DynaPro NanoStar; self-association (oligomeric state); both purified

B1: LicC from Streptococcus pneumoniae (Spn-LicC), phosphocholine cytidylyltransferase (enzyme, UniProt Q8DPI6 2-229)
chain: KAIILAAGLGTRLRPMTENTPKALVQVNQKPLIEYQIEFLKEKGINDIIIIVGYLKEQFDYLKEKYGVRLVFNDKYADYNNFYSLYLVKEELANSYVIDADNYLFKNMFRNDLTRSTYFSVYREDCTNEWFLVYGDDYKVQDIIVDSKAGRILSGVSFWDAPTAEKIVSFIDKAYASGEFVDLYWDNMVKDNIKELDVYVEELEGNSIYEIDSVQDYRKLEEILKNEN
- binding: no binding (tested: 8 mg/ml)
